Values from PubChem BioAssay AID1259425 (University of Nebraska Medical Center, 2018)

Assay: 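Find knockdowns that reproduce the gene expression pattern seen when KSR1 is lost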 (primary screen)
Cell system: HCT116 human colon cancer cells
Reagents: siRNA pool against human genes, 50 nM siRNA
Measurement: 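After 50 nM siRNA pool, branched-DNA assay measures six marker transcripts per well, minus blank, normalised to the geometric mean of two housekeeping transcripts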
Direction: BNIP3L mRNA: higher = more BNIP3L transcript after knockdown; NDRG1 mRNA: higher = more NDRG1 transcript after knockdown; BNIP3 mRNA: higher = more BNIP3 transcript after knockdown; ALDOC mRNA: higher = more ALDOC transcript after knockdown; ACSL5 mRNA: higher = more ACSL5 transcript after knockdown
Shown is one part, drawn at random, of about 14,000 reagents tested. Not stated in the record: the time to read-out.

| gene knocked down | BNIP3L mRNA, set 1 | NDRG1 mRNA, set 1 | BNIP3 mRNA, set 1 | ALDOC mRNA, set 1 | ACSL5 mRNA, set 1 |
| --- | --- | --- | --- | --- | --- |
| CCNA2 (GeneID 890) | 0.06 | 0.242 | 0.183 | 0.0279 | 0.234 |
| ZNF280C (GeneID 55609) | 0.156 | 0.337 | 0.369 | 0.0265 | 0.256 |
| CASC3 (GeneID 22794) | 0.17 | 0.444 | 0.244 | 0.0276 | 0.283 |
| ARL6IP1 (GeneID 23204) | 0.105 | 0.152 | 0.188 | 0.025 | 0.201 |
| MTF2 (GeneID 22823) | 0.136 | 0.0477 | 0.367 | 0.022 | 0.206 |
| USH2A (GeneID 7399) | 0.165 | 0.136 | 0.384 | 0.0339 | 0.189 |
| CHCHD3 (GeneID 54927) | 0.0799 | 0.321 | 0.215 | 0.0104 | 0.129 |
| UGT2A1 (GeneID 10941) | 0.129 | 0.336 | 0.301 | 0.0207 | 0.295 |
| BOLA1 (GeneID 51027) | 0.0861 | 0.152 | 0.147 | 0.0121 | 0.168 |
| PON1 (GeneID 5444) | 0.111 | 0.105 | 0.294 | 0.0227 | 0.095 |
| PAM16 (GeneID 51025) | 0.121 | 0.299 | 0.283 | 0.0172 | 0.192 |
| GNPTAB (GeneID 79158) | 0.0869 | 0.125 | 0.385 | 0.0833 | 0.167 |
| CSGALNACT2 (GeneID 55454) | 0.0706 | 0.334 | 0.344 | 0.0231 | 0.263 |
| MRPL49 (GeneID 740) | 0.13 | 0.447 | 0.289 | 0.015 | 0.177 |
| VN1R2 (GeneID 317701) | 0.141 | 0.128 | 0.246 | 0.0407 | 0.152 |
| SFRP4 (GeneID 6424) | 0.0529 | 0.0463 | 0.193 | 0.0188 | 0.0619 |
| FMNL1 (GeneID 752) | 0.1 | 0.606 | 0.255 | 0.0634 | 0.117 |
| NOCT (GeneID 25819) | 0.196 | 0.297 | 0.563 | 0.0353 | 0.362 |
| GABARAPL1 (GeneID 23710) | 0.0864 | 0.327 | 0.317 | 0.0225 | 0.157 |
| DPYSL3 (GeneID 1809) | 0.0771 | 0.229 | 0.307 | 0.0187 | 0.153 |
| DMPK (GeneID 1760) | 0.0304 | 0.0781 | 0.387 | 0.00982 | 0.289 |
| IL18RAP (GeneID 8807) | 0.0597 | 0.195 | 0.248 | 0.0252 | 0.175 |
| CTDSP1 (GeneID 58190) | 0.0718 | 0.169 | 0.203 | 0.0262 | 0.19 |
| EP400 (GeneID 57634) | 0.296 | 1.57 | 0.756 | 0.0276 | 2.08 |
| AHSA1 (GeneID 10598) | 0.0551 | 0.123 | 0.264 | 0.0252 | 0.174 |
| SLC17A3 (GeneID 10786) | 0.104 | 0.314 | 0.209 | 0.0303 | 0.249 |
| JUND (GeneID 3727) | 0.157 | 0.224 | 0.475 | 0.0137 | 0.317 |
| SRRM2 (GeneID 23524) | 0.17 | 0.188 | 0.352 | 0.0132 | 0.131 |
| SLC4A9 (GeneID 83697) | 0.218 | 0.532 | 0.343 | 0.174 | 0.745 |
| TRMT61B (GeneID 55006) | 0.801 | 2.42 | 2.61 | 0.279 | 0.167 |
| AKNA (GeneID 80709) | 0.081 | 0.257 | 0.294 | 0.0213 | 0.171 |
| ARHGAP32 (GeneID 9743) | 0.295 | 0.649 | 0.664 | -0.000894 | 0.181 |
| BMP8B (GeneID 656) | 0.201 | 0.261 | 0.126 | 0.07 | 0.251 |
| USP15 (GeneID 9958) | 0.0968 | 0.161 | 0.306 | 0.0462 | 0.185 |

Individual results from above.
SRRM2 (GeneID 23524), ALDOC mRNA, set 1: 0.0132
For “ACSL5 mRNA, set 1”, GNPTAB (GeneID 79158) is entered as 0.167
Entry of UGT2A1 (GeneID 10941) under “BNIP3L mRNA, set 1”: 0.129
